Test results taken from patent US20020098477A1, “METHODS FOR SCREENING NUCLEAR TRANSCRIPTION FACTORS FOR THE ABILITY TO MODULATE AN ESTROGEN RESPONSE” (priority 1997, published 2002).
For at least one compound, name, drawing or mass did not settle the structure.

Assays:
PR-A [1] = assay: ColALuc reporter assay in CV-1 cells transfected with ER, PR-A and c-Jun; format: cell-based, monkey; conditions: CV-1, PR-A, increasing c-Jun
Experimental: (FIG. 8A) HeLa cells were transfected with ColALuc (5 μg), ER (1 μg), PR-A or PR-B (1 μg), and c-Jun (3 μg). Data are from four separate transfections from three experiments for PR-A and from two transfections from two experiments for PR-B. Columns represent the average fold induction. (FIG. 8B) CV-1 cells were transfected with ColALuc (5 μg), ER (HE0, 0.5 μg), PR-A (1 μg) and c-Jun (3 μg). Data is from one experiment. Columns represent the average of two treatment points. Similar experiments have been repeated 3 times or less. (FIGS. 8A and 8B) Cells were treated with steroids immediately after transfection and harvested 40 hrs later. Error bars represent standard deviation.
Coll517mAP-1-CAT contains three point mutations in the consensus AP-1 response element (TGAGTCA mutated to GTACTCA). […]
Cells were transfected by electroporation as previously described (Webb et al. (1995) Mol. Endo., 9: 443-456). […] The efficiency of transfection was monitored by co-transfection with either a (hCG reporter driven by an actin promoter (Lopez et al. (1993) Mol. Cell. Biol., 13: 3042-3049) or by co-transfection with pJ3LACZ. CAT or luciferase activity was then corrected by dividing by hCG levels or β-galactosidase activity. Five micrograms of collagenase reporter plasmid, and 1 μg of GR expression vector were used in all experiments unless otherwise indicated. […]

PR-A [2] = conditions: HeLa, 10^−7 M

C[C@]12CC[C@@H]3c4ccc(O)cc4CC[C@H]3[C@@H]1CC[C@@H]2O [estradiol]
estradiol stimulation with increased amounts of c-Jun (PR-A [1]): increased estradiol stimulation
activity of AP-1 site, single steroid (PR-A [2]): stimulated transcription
